Experimental findings from publication PMC13482819 are described below.

Amino acid sequences for entries named in this document (tags omitted). A change or cut given only in a name is not applied to a line headed by its entry.
UniProt Q86WV6: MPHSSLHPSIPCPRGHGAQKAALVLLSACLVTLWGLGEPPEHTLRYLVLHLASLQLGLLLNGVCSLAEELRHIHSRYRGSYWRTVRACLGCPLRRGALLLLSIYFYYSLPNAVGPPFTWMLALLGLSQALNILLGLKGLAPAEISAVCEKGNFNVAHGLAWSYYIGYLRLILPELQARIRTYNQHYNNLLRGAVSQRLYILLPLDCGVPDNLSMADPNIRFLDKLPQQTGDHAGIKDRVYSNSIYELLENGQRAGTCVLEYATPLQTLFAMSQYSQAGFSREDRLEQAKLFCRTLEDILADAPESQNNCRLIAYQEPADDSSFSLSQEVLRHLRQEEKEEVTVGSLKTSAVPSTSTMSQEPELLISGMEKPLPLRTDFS

These are yes or no findings as the source states them, for the method shown. In cells and extracts the contact can be indirect. Some results given as binding are weak or reduced against the parent protein; the word gives no strength. Where a sequence is shown, tags or fusion partners need not be part of it.

The target in assay [1] is HA-tagged STING Y245E (phosphomimetic mutant) (human) (UniProt Q86WV6). The experiment in a line: co-IP; HEK293T co-transfected with tagged proteins (24 h), lysate in modified MLB buffer; IP with anti-HA; immunoblot with anti-EGFR, anti-Myc, anti-HA; HA-bait-negative controls; in some panels Flag-EGFR wild type or mEGFR co-expressed. Background: Immunoblotting shows a protein as a band on a membrane.

The target in assay [2] is HA-tagged STING Y314E (phosphomimetic mutant) (human) (UniProt Q86WV6). The description is as above.
Assay [3] deals with HA-tagged STING (wild type) (human), Q86WV6. The description is as above. The conditions noted are these: remark: other sources report otherwise.
In assay [4] the target is T1, Myc-tagged IRF3 2SA mutant (S385A/S386A) (human) (UniProt Q14653).
T1 sequence: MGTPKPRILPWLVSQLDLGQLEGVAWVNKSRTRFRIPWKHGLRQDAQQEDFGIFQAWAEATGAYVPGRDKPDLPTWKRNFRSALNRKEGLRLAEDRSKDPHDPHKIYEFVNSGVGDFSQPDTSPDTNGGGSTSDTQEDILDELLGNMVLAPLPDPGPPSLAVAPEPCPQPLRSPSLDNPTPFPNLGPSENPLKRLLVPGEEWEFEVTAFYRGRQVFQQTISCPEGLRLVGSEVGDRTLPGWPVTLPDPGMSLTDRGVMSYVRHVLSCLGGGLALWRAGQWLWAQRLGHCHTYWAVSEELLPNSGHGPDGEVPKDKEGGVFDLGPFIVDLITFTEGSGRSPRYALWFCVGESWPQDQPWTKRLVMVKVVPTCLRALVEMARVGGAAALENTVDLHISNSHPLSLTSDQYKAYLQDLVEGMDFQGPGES
Kind of assay: co-IP; HEK293T co-transfected with Flag-tagged wild-type EGFR or mEGFR, Myc-tagged IRF3 2SA and HA-tagged TBK1, lysate in modified MLB buffer; IP with anti-Myc; immunoblot.

B1: Myc-tagged TBK1 (enzyme, UniProt Q9UHD2 1-729)
chain: MQSTSNHLWLLSDILGQGATANVFRGRHKKTGDLFAIKVFNNISFLRPVDVQMREFEVLKKLNHKNIVKLFAIEEETTTRHKVLIMEFCPCGSLYTVLEEPSNAYGLPESEFLIVLRDVVGGMNHLRENGIVHRDIKPGNIMRVIGEDGQSVYKLTDFGAARELEDDEQFVSLYGTEEYLHPDMYERAVLRKDHQKKYGATVDLWSIGVTFYHAATGSLPFRPFEGPRRNKEVMYKIITGKPSGAISGVQKAENGPIDWSGDMPVSCSLSRGLQVLLTPVLANILEADQEKCWGFDQFFAETSDILHRMVIHVFSLQQMTAHKIYIHSYNTATIFHELVYKQTKIISSNQELIYEGRRLVLEPGRLAQHFPKTTEENPIFVVSREPLNTIGLIYEKISLPKVHPRYDLDGDASMAKAITGVVCYACRIASTLLLYQELMRKGIRWLIELIKDDYNETVHKKTEVVITLDFCIRNIEKTVKVYEKLMKINLEAAELGEISDIHTKLLRLSSSQGTIETSLQDIDSRLSPGGSLADAWAHQEGTHPKDRNVEKLQVLLNCMTEIYYQFKKDKAERRLAYNEEQIHKFDKQKLYYHATKAMTHFTDECVKKYEAFLNKSEEWIRKMLHLRKQLLSLTNQCFDIEEEVSKYQEYTNELQETLPQKMFTASSGIKHTMTPIYPSSNTLVEMTLGMKKLKEEMEGVVKELAENNHILERFGSLTMDGGLRNVDCL
As for B1, the binding result in assay [1] and in assay [2] was “binds” each time.

B2: Myc-tagged TBK1, Q9UHD2 1-729 (enzyme)
chain: MQSTSNHLWLLSDILGQGATANVFRGRHKKTGDLFAIKVFNNISFLRPVDVQMREFEVLKKLNHKNIVKLFAIEEETTTRHKVLIMEFCPCGSLYTVLEEPSNAYGLPESEFLIVLRDVVGGMNHLRENGIVHRDIKPGNIMRVIGEDGQSVYKLTDFGAARELEDDEQFVSLYGTEEYLHPDMYERAVLRKDHQKKYGATVDLWSIGVTFYHAATGSLPFRPFEGPRRNKEVMYKIITGKPSGAISGVQKAENGPIDWSGDMPVSCSLSRGLQVLLTPVLANILEADQEKCWGFDQFFAETSDILHRMVIHVFSLQQMTAHKIYIHSYNTATIFHELVYKQTKIISSNQELIYEGRRLVLEPGRLAQHFPKTTEENPIFVVSREPLNTIGLIYEKISLPKVHPRYDLDGDASMAKAITGVVCYACRIASTLLLYQELMRKGIRWLIELIKDDYNETVHKKTEVVITLDFCIRNIEKTVKVYEKLMKINLEAAELGEISDIHTKLLRLSSSQGTIETSLQDIDSRLSPGGSLADAWAHQEGTHPKDRNVEKLQVLLNCMTEIYYQFKKDKAERRLAYNEEQIHKFDKQKLYYHATKAMTHFTDECVKKYEAFLNKSEEWIRKMLHLRKQLLSLTNQCFDIEEEVSKYQEYTNELQETLPQKMFTASSGIKHTMTPIYPSSNTLVEMTLGMKKLKEEMEGVVKELAENNHILERFGSLTMDGGLRNVDCL
For B2, the binding entry in assay [3] is given as “binds”.

B3: HA-tagged TBK1 (enzyme, UniProt Q9UHD2 1-729)
chain: MQSTSNHLWLLSDILGQGATANVFRGRHKKTGDLFAIKVFNNISFLRPVDVQMREFEVLKKLNHKNIVKLFAIEEETTTRHKVLIMEFCPCGSLYTVLEEPSNAYGLPESEFLIVLRDVVGGMNHLRENGIVHRDIKPGNIMRVIGEDGQSVYKLTDFGAARELEDDEQFVSLYGTEEYLHPDMYERAVLRKDHQKKYGATVDLWSIGVTFYHAATGSLPFRPFEGPRRNKEVMYKIITGKPSGAISGVQKAENGPIDWSGDMPVSCSLSRGLQVLLTPVLANILEADQEKCWGFDQFFAETSDILHRMVIHVFSLQQMTAHKIYIHSYNTATIFHELVYKQTKIISSNQELIYEGRRLVLEPGRLAQHFPKTTEENPIFVVSREPLNTIGLIYEKISLPKVHPRYDLDGDASMAKAITGVVCYACRIASTLLLYQELMRKGIRWLIELIKDDYNETVHKKTEVVITLDFCIRNIEKTVKVYEKLMKINLEAAELGEISDIHTKLLRLSSSQGTIETSLQDIDSRLSPGGSLADAWAHQEGTHPKDRNVEKLQVLLNCMTEIYYQFKKDKAERRLAYNEEQIHKFDKQKLYYHATKAMTHFTDECVKKYEAFLNKSEEWIRKMLHLRKQLLSLTNQCFDIEEEVSKYQEYTNELQETLPQKMFTASSGIKHTMTPIYPSSNTLVEMTLGMKKLKEEMEGVVKELAENNHILERFGSLTMDGGLRNVDCL
In the case of B3, the binding result in assay [4] is “binds”.
